According to PubChem BioAssay AID1347076 (National Center for Advancing Translational Sciences (NCATS), 2019):
In all, about 400,000 compounds went through this assay and about 13,000 (3.2%) were called active. Inconclusive means that the source gave no clear call. Such entries were picked first, then a sample of the others. Calls follow the shape of the dose curve; as a rule, active = well fitted cell-killing curve with a large enough effect; inconclusive = small, poorly fitted or top-dose-only effect, or effect the other way; inactive = flat fitted curve, though single readings scatter. A potency beside an inconclusive call is a rough fit, not a confirmed value.

Test: qHTS assay for MDR1-selective chemotherapeutics: Primary screen using the drug-selected MDR subline cells KB-V1; also: nearly all actives have a fitted effect of over 60% in size
Details: KB-V1 MDR cells viability, CellTiter-Glo, 72 h; activity change, negative = cytotoxicity: at 46.1 µM (top of the series)
Procedure, shortened: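 Cells of the MDR subline KB-V1 are plated, dosed with compound at multiple concentrations, and incubated 72 h at 37 degrees C; CellTiter-Glo is then added and luminescence read after 10 min.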
% is scaled to controls: 0 for no effect and ±100 for the full control effect; potency is read from the fitted curve at half-maximal effect.

| SMILES | activity change, negative = cytotoxicity | Potency |
| --- | --- | --- |
| O=[N+]([O-])c1ccccc1S(=O)(=O)c1ccccc1 | inconclusive: 34.8% |  |
| COc1ccc(C)cc1NC(=O)N1CCN(c2cc(-c3noc(C)n3)ccc2C)CC1 |  | inconclusive: 20.6 µM [cytotoxic, single point] |
| CN(C)c1ccc(/C=C/c2cccc3cc4ccccc4nc23)cc1 |  | inactive |
| CCOC(=O)c1c(C)[nH]c(C(=O)COC(=O)CSCC(=O)N(CC)CC)c1C |  | inconclusive: 3.26 µM [cytotoxic, full curve] |
| COc1ccccc1-n1cc(C(=O)NCC(=O)N2CCN(Cc3ccccc3)CC2)c2ccccc2c1=O |  | inconclusive: 20.6 µM [cytotoxic, partial curve, poor fit] |
| O=C(O)CCCN1C(=O)c2cccc3cccc(c23)C1=O |  | inactive |
| O=C(/C=C/c1ccccc1[N+](=O)[O-])OC1CCCCC1=O (stereo not drawn) |  | inconclusive: 23.1 µM [rising, single point] |
| CC(Sc1nc(-c2ccccc2)cc(C(F)(F)F)n1)C(=O)N1CCCCC1 (stereo not drawn) |  | inconclusive: 13 µM [cytotoxic, partial curve, poor fit] |
| COc1ccccc1NC(=O)Cn1c(=O)n(-c2cccc(Cl)c2)c(=O)c2c1c1cc(C)ccc1n2C |  | inactive |
| CCOC(=O)Nc1cccnc1Sc1ccc(Cl)cc1 |  | inactive |
| COCCNc1ncnc2c1ncn2[C@H]1CN(Cc2ccccc2)C[C@@H](CO)O1 |  | inactive |
| C=CCc1c(C)c(C#N)c2nc3ccccc3n2c1N1CCCCC1 |  | inactive |
| Cc1c(Nc2nc3ccccc3n3cnnc23)cccc1[N+](=O)[O-] | inconclusive: -33.3% |  |
| CC1(c2nnnn2Cc2ccccc2)CCC(=O)N1Cc1cccs1 (stereo not drawn) |  | inconclusive: 18.4 µM [cytotoxic, partial curve, poor fit] |
| Oc1ccc(/C=C/c2ccnc3ccccc23)cc1 |  | inactive |
| COc1ccccc1OCC(=O)NN=C(Cc1ccccc1)Cc1ccccc1 |  | inconclusive: 18.4 µM [cytotoxic, partial curve, poor fit] |
| Cc1cc(C)n2nc(SCC(=O)Nc3ccc(F)cc3[N+](=O)[O-])nc2n1 |  | active: 20.6 µM |
| CCCCN(C)CCNC(=O)C1CCN(S(=O)(=O)c2cccc3nsnc23)CC1 |  | inactive |
| CS(=O)(=O)Nc1ccccc1-c1ccc2nccn2c1 |  | inactive |
| COc1ccc(CNC(=O)COc2ccc(S(=O)(=O)N3CCOCC3)cc2C)cc1 |  | inconclusive: 7.31 µM [cytotoxic, partial curve] |
| CCN(C(=O)COc1cc(=O)n(CC)c2ccccc12)c1cccc(Cl)c1 |  | active: 2.06 µM |
| COC(=O)C1=C(C)N(Cc2ccccc2)C(=NCc2ccc(OC)cc2)N[C@H]1c1cccc(F)c1 |  | inconclusive: 18.4 µM [cytotoxic, single point] |
| CC1=C/C(=N\N=C2\NC(=O)C(CC(=O)Nc3ccccc3F)S2)CC(C)(C)C1 (stereo not drawn) |  | inconclusive: 29.1 µM [cytotoxic, single point] |
| COc1ccc(C(=O)C2CCCN(C(=O)c3noc4c3CCCC4)C2)c(C)c1 (stereo not drawn) |  | inactive |

| SMILES | activity change, negative = cytotoxicity | Potency |
| --- | --- | --- |
| Cc1cccc(OCC(=O)Nc2ccc(Cl)c(-c3nc4ccccc4[nH]3)c2)c1 |  | inactive |
| CC(CNCC1CCCO1)COc1cccc2ccccc12 (stereo not drawn) |  | inactive |
| CCc1ccc(N(C(=O)c2ccco2)C(C(=O)NC2CCCC2)c2ccncc2)cc1 (stereo not drawn) |  | inconclusive: 10.3 µM [cytotoxic, partial curve] |
| CCN(CC(=O)Nc1c(C(=O)OC)[nH]c2ccc(Cl)cc12)c1ccc2c(c1)OCO2 |  | inconclusive: 25.9 µM [cytotoxic, single point] |
| Cc1ccc(OC(=O)c2cccnc2)cc1 |  | inconclusive: 25.9 µM [rising, partial curve, poor fit] |
| Cc1ccc(C(=O)Nc2ccc(S(=O)(=O)N3CCCC3)cc2)s1 |  | inconclusive: 20.6 µM [cytotoxic, partial curve] |
| CCn1c(=N)n(CC(=O)c2cccc(OC)c2)c2ccccc21 |  | active: 8.2 µM |
| COCCNC(=O)c1cnn2c(C(F)(F)F)cc(-c3ccc4c(c3)OCO4)nc12 |  | active: 2.06 µM |
| CCOc1ccc(CCNC(=O)c2cc3ccccn3n2)cc1OCC |  | inconclusive: 18.4 µM [cytotoxic, single point] |
| O=C(C1CCN(S(=O)(=O)c2ccccc2F)CC1)N1CCN(Cc2ccc3c(c2)OCO3)CC1 | inconclusive: -10.3% |  |
| COc1ccc(O)c(/C=C2/SC(=S)N(Cc3ccccc3)C2=O)c1 |  | inconclusive: 23.1 µM [cytotoxic, partial curve, poor fit] |
| C=C1NN(Cc2ccc(OC)cc2)C(=O)N1c1ccccc1 |  | inactive |
| Cc1cc(N2CCN(c3ccc(F)cc3)CC2)nc(-c2ccccc2)n1 |  | inactive |
| N#Cc1ccc(-c2ccc(OCC(=O)NCCCN3CCCC3=O)cc2)cc1 |  | inconclusive: 18.4 µM [cytotoxic, partial curve] |
| COc1ccccc1NC(=O)CSc1nnc(CNC(=O)c2cccs2)o1 |  | inconclusive: 13 µM [rising, single point] |
| COc1ccc(NC(=O)N2CCCC(c3nc(-c4ccc(OC)cc4)no3)C2)cc1 (stereo not drawn) |  | inactive |
| CC(C)(C)CN1CCN(CCCc2ccccc2)C(CCO)C1 (stereo not drawn) |  | inactive |
| COc1cccc(-n2c(SCC(=O)NC3CC3)nc3ccccc3c2=O)c1 |  | inconclusive: 32.6 µM [cytotoxic, single point] |
| Cc1oc(-c2ccc(Cl)cc2)nc1CSCC(=O)NCc1ccccc1Cl |  | inconclusive: 9.2 µM [cytotoxic, partial curve] |
| O=C(COC(=O)c1cc([N+](=O)[O-])ccc1N1CCOCC1)NCc1ccc(F)cc1 |  | inactive |
| Cc1ccc(O)c(NC(=O)c2ccc3c(c2)C(=O)N(Cc2cccnc2)C3=O)c1 |  | inactive |
| Cc1oc(-c2ccccc2Cl)nc1CSc1nc2c(c(=O)[nH]1)CCCC2 |  | inactive |
| O=C(c1cc2ccccc2o1)N(C1CC1)C1(C(=O)Nc2ccccc2)CCCC1 |  | inconclusive: 4.61 µM [cytotoxic, partial curve] |
| COc1cccc(C(=O)Nc2c(C(=O)c3ccc(F)cc3)oc3ccccc23)c1 |  | inactive |

Given as labelled records: entries from further up.
N#Cc1ccc(-c2ccc(OCC(=O)NCCCN3CCCC3=O)cc2)cc1
  Potency: inconclusive: 18.4 µM [cytotoxic, partial curve]
COc1ccccc1NC(=O)CSc1nnc(CNC(=O)c2cccs2)o1
  Potency: inconclusive: 13 µM [rising, single point]
COc1ccc(NC(=O)N2CCCC(c3nc(-c4ccc(OC)cc4)no3)C2)cc1 (stereo not drawn)
  Potency: inactive
